Primary screen of a compound library

Amino acid sequences for entries named in this document (tags omitted).
UniProt E9BF75, entry or part of it: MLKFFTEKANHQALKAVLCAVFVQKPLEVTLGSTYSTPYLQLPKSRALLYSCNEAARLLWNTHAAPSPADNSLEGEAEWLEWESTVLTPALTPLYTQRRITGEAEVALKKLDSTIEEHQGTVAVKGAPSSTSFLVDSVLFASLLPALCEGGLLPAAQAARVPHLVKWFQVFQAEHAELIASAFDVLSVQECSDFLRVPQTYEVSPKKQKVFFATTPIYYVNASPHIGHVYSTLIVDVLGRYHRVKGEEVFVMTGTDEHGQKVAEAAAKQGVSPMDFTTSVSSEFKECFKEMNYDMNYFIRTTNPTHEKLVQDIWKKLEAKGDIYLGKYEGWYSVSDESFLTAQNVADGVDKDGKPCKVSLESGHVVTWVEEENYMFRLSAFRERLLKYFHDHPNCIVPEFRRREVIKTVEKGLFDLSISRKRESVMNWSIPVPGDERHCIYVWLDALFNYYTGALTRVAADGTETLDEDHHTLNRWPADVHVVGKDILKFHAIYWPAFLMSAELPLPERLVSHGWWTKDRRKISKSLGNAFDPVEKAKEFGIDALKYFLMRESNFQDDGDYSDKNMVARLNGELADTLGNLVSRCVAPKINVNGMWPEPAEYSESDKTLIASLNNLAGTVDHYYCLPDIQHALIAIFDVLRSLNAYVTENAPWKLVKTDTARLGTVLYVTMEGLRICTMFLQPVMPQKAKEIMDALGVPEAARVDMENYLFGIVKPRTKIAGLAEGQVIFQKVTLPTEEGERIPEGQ

From ChEMBL document CHEMBL3988442, “University of Dundee, Small-Polar-MMV Screening Library” (2021).

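Methionyl-tRNA synthetase (putative), Leishmania donovani (UniProt E9BF75). Primary screen of methionyl-tRNA synthetase; the read-out is not stated. The test concentration is not given. The values are filed as inhibition. Of about 68,000 compounds tested this way, about 24 (0.035%) reached 50% or more in at least one test.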

Results are percentages, as filed.
The record does not define 0% and 100%; most values in the screen are far below 50% and negative numbers occur (in some assays of this library far below -100).
Compounds were drawn at random from those tested, without regard to their results.

compound	inhibition
O=C(c1cnc(NCCC2CCCO2)c(Cl)c1)N1CCCCC1 (stereo not drawn)	9.699
CN(C)c1cnn(CC(=O)N2CCN(Cc3cccs3)CC2)c(=O)c1	5.944
CC(C)(C)c1ncc(CNc2ccccc2Cn2cncn2)s1	6.354
Cc1cc(N2CCOC(c3ccc(C(N)=O)cn3)C2)ncn1 (stereo not drawn)	-0.5249
COc1cc(C(C)NCc2cscn2)ccc1SC(F)F (stereo not drawn)	4.348
CCCN1CCN(C(=O)c2ccc3nc(C)oc3c2)[C@H]2CS(=O)(=O)C[C@H]21	19.16
Cc1ccc(CN2CC[C@@H](O)[C@@H]2Cc2cnn(C)c2)o1	-1.99
CNC(=O)[C@H]1C[C@@H]2CCN(Cc3ccc4c(c3)OCO4)C[C@@H]2O1	6.536
COc1cccc(-c2noc(C3CCN(Cc4ccncc4)C3)n2)c1 (stereo not drawn)	13.35
O=C(CCN1C(=O)CC2(CCCC2)C1=O)NCCc1nccs1	12.46
Cc1cc(C)n(C2CN(CC(=O)N(C)Cc3ccco3)C2)n1	28.12
Cc1cnn(CCNCC(O)COc2ccc(Cl)cc2)c1 (stereo not drawn)	8.92
NC(=O)N1C[C@H]2CN(Cc3nccs3)C[C@H]2C1	9.091
CCN(CCCN1CCOCC1)C(=O)c1cnn(CC)c1	-6.265
Cc1nn(C)c(N2CCCN(C)CC2)c1CNC(=O)CC1CCCC1	13.58
CCc1cc(=O)[nH]c(-c2ccc(NCCc3ccc(O)cc3)nc2)n1	21.88
CCS(=O)(=O)c1ncc(CN(C)Cc2ccc(C)o2)n1CCOC	4.682
COCCN1C[C@@H]2[C@@H](OC)CCN(Cc3cccs3)[C@@H]2C1	21.25
CC(C)CCN1C[C@H]2CCN(C(=O)NC3CCCC3)CC[C@H]2S1(=O)=O	17
CNS(=O)(=O)c1ccc(CN2CCCN(Cc3ccncc3)CC2)cc1	1.95
Cc1cc(C)n(CC(=O)NC(Cc2ccsc2)c2ccccn2)c(=O)n1 (stereo not drawn)	8.562
COc1nc(C)ccc1CNC(=O)NC(C)(C)c1ncc(C)s1	9.669
Cc1nonc1NC(=O)C1SCCc2ccccc21 (stereo not drawn)	11.85
c1cnn(CCC2CCN(Cc3ccc4[nH]ccc4c3)CC2)c1	20.74
O=C(c1nnn(-c2ccc(Cl)cc2)n1)N(CCO)Cc1ccccc1	11.02
Cc1n[nH]cc1CNCC1(c2ccccc2Cl)CCOCC1	13.42
CC(C(=O)N1CCN(c2ccc(F)cc2)CC1)n1cc(Br)cn1 (stereo not drawn)	0.7538
Fc1cccnc1O[C@@H]1CC[C@H]2[C@H]1OCCN2Cc1nccs1	17.04
Cc1csc(-c2ccc(NC(=O)N3CCOCC3)cc2)n1	11.08
COc1ccc(Cc2nnc(NC(=O)C3CC34CCC4)s2)cc1OC (stereo not drawn)	9.884
O=C(c1ccc2c(c1)COC2)N1CCC(Nc2cccnn2)CC1	14.98
O=C(O)c1cc(-c2cc[nH]n2)cc(S(=O)(=O)N2CCCCCC2)c1	13.59
Cc1nc(C)n(CC2CCCN(CCOc3ccccc3C#N)C2)n1 (stereo not drawn)	4.558
CC(C)NC(=O)c1nc(Cn2c(C(F)F)nc3ccccc32)no1	5.079
O=C(c1ccn(-c2ccccc2Cl)n1)N1CCSCC1	15.99
O=C(NCCn1ccnc1)c1csc2c1CCCC2	13.35
CN1C[C@H]2CC[C@@H]1CN(C(=O)COCc1nc3cc(F)ccc3[nH]1)C2	13.18
Cn1cnnc1C1CCCN(C(=O)c2ccc3c(c2)OCCO3)C1 (stereo not drawn)	13.4
Cc1nc(CCNC(=O)C2CC(=O)N(C(C)(C)C)C2)sc1C (stereo not drawn)	19.5
CC(C)COC(C)C(=O)NCc1ccc(N(C)C)cc1 (stereo not drawn)	7.639
Cc1nc(CN(C)C2CCN(CCCOc3ccccc3C)C2)no1 (stereo not drawn)	8.197
CC(C)NC(=O)N1CC[C@@H]2CN(S(C)(=O)=O)CCO[C@@H]2C1	14.55
COCCN1CCC(CNC(=O)C2(NC(C)=O)CCCCC2)CC1	10.22
CS(=O)(=O)NC1CCCN(C(=O)Nc2cccnc2N2CCCC2)C1 (stereo not drawn)	14.72
Cc1nccc(N2CC[C@@H]3[C@@H](CCC(=O)N3CCc3ccccc3)C2)n1	17.01
COCCOc1ccc(NC(=O)N2CCCC2c2cc(C)no2)cn1 (stereo not drawn)	17.36
COCC1c2nnn(CC3CC3)c2CCN1C(=O)c1sccc1C (stereo not drawn)	6.529
CC(C)(NC(=O)c1ccc(-c2ccccc2F)s1)C(N)=O	4.556
CC(SCCC(=O)NC(N)=O)c1cccc(F)c1 (stereo not drawn)	5.759
CCn1c(CC2CCN(C(=O)c3cc(CC(C)C)on3)CC2)n[nH]c1=O	5.177
Cc1cc(C(F)(F)F)nn1CCCNC(=O)C1CCN(S(C)(=O)=O)CC1	8.467
CCN(C(=O)c1cc2c([nH]c1=O)CCCC2=O)C1CCCCC1	12.37
Cc1ccc(F)cc1-n1c(CCCN2CCOCC2)n[nH]c1=O	14.36
Cc1ccc(CN(Cc2ccncc2)C2CCN(C)CC2)s1	-4.077
CC(C)OCCCN(Cc1ccncc1)Cc1cc(F)cc(F)c1	7.074

5 of the entries, repeated:

compound,inhibition
CS(=O)(=O)NC1CCCN(C(=O)Nc2cccnc2N2CCCC2)C1 (stereo not drawn),14.72
CC(C)OCCCN(Cc1ccncc1)Cc1cc(F)cc(F)c1,7.074
CCS(=O)(=O)c1ncc(CN(C)Cc2ccc(C)o2)n1CCOC,4.682
Cc1cnn(CCNCC(O)COc2ccc(Cl)cc2)c1 (stereo not drawn),8.92
Cc1cc(C)n(CC(=O)NC(Cc2ccsc2)c2ccccn2)c(=O)n1 (stereo not drawn),8.562